Experimental data from the supplement of paper PMC10849652.
Some of the results follow.

Amino acid sequences for entries named in this document (tags omitted). A change or cut given only in a name is not applied to a line headed by its entry.
UniProt O75387: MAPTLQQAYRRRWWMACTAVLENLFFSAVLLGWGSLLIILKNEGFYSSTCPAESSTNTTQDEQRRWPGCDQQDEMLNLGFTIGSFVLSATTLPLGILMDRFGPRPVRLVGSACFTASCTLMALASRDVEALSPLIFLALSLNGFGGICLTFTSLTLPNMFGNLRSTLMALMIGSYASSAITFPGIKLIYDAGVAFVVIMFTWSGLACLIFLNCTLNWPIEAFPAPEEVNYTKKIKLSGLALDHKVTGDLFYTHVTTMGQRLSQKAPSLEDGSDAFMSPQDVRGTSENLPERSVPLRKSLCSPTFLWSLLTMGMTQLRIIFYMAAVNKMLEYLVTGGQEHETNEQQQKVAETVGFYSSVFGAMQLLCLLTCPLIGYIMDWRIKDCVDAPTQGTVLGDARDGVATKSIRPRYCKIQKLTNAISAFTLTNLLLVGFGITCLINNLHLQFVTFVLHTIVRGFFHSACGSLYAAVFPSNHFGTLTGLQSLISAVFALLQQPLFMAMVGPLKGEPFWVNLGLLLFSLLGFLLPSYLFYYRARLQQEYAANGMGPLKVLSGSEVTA
UniProt Q8IWA5: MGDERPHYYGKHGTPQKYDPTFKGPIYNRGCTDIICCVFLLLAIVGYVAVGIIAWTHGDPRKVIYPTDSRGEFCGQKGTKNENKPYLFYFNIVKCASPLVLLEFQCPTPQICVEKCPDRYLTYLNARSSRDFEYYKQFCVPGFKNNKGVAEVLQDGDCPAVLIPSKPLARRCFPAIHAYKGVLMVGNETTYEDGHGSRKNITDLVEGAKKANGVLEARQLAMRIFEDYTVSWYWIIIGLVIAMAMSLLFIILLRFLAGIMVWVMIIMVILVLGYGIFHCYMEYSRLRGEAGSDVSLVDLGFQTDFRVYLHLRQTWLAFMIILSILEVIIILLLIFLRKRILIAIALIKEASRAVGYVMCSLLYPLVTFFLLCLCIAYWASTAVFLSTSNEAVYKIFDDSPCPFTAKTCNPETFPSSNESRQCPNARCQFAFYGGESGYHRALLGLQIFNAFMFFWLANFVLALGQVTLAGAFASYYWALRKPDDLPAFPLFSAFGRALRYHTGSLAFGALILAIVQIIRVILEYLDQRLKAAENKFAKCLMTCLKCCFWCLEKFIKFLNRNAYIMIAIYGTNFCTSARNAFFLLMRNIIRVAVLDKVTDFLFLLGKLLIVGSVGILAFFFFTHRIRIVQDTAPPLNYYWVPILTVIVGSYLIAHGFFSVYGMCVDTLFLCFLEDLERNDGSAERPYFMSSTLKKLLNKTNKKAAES
UniProt P48029: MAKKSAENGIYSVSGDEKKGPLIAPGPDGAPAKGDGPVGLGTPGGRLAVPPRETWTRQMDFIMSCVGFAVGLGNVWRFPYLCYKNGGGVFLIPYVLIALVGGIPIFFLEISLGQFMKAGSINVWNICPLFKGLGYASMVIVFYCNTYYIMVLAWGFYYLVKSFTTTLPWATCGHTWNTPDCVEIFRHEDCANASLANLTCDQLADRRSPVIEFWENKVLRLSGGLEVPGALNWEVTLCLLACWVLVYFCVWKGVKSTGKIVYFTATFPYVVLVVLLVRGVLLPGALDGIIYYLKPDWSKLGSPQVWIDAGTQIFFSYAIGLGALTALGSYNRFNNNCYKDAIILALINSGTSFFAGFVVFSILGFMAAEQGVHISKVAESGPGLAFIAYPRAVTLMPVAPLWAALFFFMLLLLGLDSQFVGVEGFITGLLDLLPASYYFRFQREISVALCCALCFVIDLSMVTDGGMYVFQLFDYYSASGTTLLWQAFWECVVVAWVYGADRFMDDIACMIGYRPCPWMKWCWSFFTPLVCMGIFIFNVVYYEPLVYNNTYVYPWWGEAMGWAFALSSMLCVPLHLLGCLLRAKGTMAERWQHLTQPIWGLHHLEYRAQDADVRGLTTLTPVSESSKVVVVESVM
UniProt Q9Y6M5: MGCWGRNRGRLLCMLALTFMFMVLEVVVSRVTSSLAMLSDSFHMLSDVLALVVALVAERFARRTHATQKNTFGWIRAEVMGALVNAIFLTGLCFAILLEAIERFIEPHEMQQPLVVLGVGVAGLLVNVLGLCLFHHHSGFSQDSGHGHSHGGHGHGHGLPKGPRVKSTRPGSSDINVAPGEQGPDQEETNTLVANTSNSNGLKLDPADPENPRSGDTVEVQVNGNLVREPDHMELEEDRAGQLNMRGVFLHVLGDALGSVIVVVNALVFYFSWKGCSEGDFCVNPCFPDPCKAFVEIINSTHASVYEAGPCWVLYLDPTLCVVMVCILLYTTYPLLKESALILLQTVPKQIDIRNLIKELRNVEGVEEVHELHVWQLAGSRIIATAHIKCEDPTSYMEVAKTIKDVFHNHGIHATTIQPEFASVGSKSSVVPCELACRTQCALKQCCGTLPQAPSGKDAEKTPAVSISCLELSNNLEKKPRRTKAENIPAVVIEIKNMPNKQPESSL
UniProt P12236: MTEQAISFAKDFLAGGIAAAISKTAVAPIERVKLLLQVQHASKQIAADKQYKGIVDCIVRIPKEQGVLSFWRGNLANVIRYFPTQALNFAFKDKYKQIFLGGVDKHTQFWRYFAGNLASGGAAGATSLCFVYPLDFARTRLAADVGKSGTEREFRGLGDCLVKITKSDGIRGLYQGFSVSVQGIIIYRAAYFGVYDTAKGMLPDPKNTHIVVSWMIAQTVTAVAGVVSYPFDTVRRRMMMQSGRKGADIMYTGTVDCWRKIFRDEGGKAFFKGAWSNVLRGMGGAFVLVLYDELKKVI
UniProt Q00325: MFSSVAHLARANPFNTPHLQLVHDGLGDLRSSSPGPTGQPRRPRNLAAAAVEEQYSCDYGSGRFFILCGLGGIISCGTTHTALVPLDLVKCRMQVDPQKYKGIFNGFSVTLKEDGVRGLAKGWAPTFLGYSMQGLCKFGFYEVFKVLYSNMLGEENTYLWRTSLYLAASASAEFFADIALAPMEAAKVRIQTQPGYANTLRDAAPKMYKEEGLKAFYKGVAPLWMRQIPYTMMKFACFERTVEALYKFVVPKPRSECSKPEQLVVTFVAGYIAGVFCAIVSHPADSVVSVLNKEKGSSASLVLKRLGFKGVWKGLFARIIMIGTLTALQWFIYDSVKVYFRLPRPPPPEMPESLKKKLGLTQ
UniProt Q9Y289: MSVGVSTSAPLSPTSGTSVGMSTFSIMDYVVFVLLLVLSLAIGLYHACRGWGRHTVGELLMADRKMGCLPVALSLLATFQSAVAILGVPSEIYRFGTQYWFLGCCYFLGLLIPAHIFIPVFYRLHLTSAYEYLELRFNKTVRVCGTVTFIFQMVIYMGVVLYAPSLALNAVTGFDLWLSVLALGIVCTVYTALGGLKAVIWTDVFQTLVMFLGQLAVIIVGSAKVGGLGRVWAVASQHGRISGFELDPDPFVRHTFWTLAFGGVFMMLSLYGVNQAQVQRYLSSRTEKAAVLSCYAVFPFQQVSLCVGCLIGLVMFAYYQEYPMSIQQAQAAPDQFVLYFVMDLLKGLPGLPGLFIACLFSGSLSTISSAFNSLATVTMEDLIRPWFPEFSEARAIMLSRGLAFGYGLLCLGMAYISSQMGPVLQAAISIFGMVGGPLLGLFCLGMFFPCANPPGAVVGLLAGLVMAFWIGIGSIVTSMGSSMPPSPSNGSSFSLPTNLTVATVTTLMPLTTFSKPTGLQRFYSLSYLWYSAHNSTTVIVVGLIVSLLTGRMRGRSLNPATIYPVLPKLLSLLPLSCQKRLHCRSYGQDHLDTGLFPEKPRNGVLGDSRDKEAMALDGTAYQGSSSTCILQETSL
UniProt P11166: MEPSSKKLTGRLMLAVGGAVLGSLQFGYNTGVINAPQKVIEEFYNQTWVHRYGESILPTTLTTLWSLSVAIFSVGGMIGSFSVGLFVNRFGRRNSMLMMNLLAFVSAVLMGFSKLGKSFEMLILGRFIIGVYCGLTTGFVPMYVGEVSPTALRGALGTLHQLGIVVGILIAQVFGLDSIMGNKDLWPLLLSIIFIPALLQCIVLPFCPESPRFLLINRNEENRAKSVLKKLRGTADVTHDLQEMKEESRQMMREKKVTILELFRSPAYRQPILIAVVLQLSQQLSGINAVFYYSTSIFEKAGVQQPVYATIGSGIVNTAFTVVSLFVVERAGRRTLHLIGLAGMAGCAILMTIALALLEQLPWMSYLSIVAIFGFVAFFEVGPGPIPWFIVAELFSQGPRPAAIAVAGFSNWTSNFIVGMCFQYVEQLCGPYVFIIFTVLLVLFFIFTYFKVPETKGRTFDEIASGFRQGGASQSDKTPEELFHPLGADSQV
UniProt Q15599: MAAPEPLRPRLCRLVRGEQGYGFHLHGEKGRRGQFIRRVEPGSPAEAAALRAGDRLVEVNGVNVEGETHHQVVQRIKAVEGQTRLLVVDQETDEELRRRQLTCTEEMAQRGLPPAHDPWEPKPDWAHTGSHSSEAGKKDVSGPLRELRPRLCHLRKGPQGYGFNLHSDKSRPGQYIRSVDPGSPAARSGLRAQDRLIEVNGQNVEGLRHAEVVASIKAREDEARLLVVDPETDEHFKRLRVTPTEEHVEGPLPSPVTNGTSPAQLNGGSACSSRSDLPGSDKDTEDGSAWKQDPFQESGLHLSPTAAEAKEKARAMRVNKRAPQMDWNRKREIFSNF
UniProt O00400: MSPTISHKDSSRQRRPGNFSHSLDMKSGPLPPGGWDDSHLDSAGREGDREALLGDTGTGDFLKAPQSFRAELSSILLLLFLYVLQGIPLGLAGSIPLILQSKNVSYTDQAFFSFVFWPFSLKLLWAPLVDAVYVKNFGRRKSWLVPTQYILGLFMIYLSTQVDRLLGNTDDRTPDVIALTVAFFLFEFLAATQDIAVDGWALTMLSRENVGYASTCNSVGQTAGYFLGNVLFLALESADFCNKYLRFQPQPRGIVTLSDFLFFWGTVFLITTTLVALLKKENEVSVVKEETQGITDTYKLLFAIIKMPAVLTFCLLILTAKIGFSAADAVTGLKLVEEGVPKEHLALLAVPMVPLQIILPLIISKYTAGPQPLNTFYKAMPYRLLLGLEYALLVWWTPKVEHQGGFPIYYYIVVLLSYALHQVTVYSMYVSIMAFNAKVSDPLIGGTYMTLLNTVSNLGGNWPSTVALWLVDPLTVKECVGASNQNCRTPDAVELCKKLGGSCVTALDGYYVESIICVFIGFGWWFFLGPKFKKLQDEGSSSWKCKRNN
UniProt Q96CQ1: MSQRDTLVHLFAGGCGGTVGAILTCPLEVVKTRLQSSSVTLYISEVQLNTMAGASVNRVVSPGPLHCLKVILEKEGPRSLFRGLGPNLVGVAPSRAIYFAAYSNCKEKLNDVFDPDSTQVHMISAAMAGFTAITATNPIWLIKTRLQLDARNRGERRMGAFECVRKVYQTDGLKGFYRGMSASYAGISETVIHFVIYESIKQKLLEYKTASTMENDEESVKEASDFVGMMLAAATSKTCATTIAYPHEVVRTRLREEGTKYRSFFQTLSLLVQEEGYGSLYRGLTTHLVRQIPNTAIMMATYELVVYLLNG
UniProt Q9Y619: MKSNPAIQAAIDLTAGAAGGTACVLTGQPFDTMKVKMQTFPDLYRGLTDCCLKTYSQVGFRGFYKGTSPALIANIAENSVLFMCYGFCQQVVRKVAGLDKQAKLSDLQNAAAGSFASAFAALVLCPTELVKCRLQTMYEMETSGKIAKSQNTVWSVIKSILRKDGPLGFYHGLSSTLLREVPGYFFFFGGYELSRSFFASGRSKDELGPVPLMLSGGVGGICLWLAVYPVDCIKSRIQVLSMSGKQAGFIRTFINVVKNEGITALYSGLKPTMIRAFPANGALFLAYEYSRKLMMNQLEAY
UniProt Q9H1N7: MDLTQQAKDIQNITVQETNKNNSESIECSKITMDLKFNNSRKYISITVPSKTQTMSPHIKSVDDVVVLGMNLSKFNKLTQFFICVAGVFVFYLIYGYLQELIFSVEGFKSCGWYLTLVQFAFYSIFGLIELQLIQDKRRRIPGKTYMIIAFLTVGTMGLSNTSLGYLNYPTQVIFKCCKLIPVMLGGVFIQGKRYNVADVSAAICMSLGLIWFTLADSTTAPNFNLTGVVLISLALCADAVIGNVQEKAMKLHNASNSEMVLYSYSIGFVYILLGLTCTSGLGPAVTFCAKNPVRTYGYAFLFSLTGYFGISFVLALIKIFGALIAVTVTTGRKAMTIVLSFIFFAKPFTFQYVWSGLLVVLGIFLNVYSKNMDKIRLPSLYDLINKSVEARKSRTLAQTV
UniProt P16260: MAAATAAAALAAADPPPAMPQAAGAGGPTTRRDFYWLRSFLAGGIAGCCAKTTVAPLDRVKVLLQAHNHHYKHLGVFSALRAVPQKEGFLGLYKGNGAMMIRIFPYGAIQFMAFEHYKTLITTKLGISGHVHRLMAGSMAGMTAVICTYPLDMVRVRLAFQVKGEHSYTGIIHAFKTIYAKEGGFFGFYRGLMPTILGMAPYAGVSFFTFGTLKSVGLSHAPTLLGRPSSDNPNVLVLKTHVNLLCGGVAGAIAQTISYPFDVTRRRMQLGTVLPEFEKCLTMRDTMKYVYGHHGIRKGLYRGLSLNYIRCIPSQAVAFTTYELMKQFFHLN

Key:
Test in all cases: log2 fold change, soluble protein after heating vs DMSO (PISA); higher = thermal stabilisation; K562 lysate, 10 uM; active = over 0.2 and 3.5 SD of the protein, either way, in both replicates (recomputed)
erlotinib = compound: C#Cc1cccc(Nc2ncnc3cc(OCCOC)c(OCCOC)cc23)c1 [erlotinib]
Method in brief: (§1)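 K562 pellets were dounce-homogenised in PBS pH 7.4 containing 1 mM MgCl2, and the crude extract, at 1 mg/mL protein, was exposed to 10 μM compound for 30 min. Aliquots were heated for 3 min across 48°C-58°C, pooled, brought to 0.5% NP-40 at 4°C and spun at 21,000xg for 90 min, with the supernatant taken as soluble protein. TMTpro 16plex LC-MS/MS with equalised channel sums quantified that protein. Values are log-two fold changes in thermal stability relative to solvent controls, taken from duplicates.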

[1] = compound: C/C(=N\NC(=O)C1=CC(=CC=C1)S(=O)(=O)N2CCOCC2)/C3=C(C=CC(=C3)Cl)O
Method in brief: as §1

[2] = compound: C1=CC(=CC=C1C2=NC3=C(N2)C=C(C=C3)C(=O)N)OC4=CC=C(C=C4)Cl
Method in brief: as §1

[3] = compound: C1=CC2=C(C=CC(=C2)/C=C\3/C(=O)NC(=NCC4=CC=CS4)S3)N=C1
Method in brief: as §1

[4] = compound: C1=CC2=NC=CN=C2C=C1/C=C/3\C(=O)NC(=O)S3
Method in brief: as §1

[5] = compound: C1=CC=C(C=C1)C2=NC(=C(N2)C3=CC=NC=C3)C4=CC(=C(C=C4)Cl)O
Method in brief: as §1

[6] = compound: C1=CC=C2C(=C1)C3=NNC4=CC=CC(=C43)C2=O
Method in brief: as §1

[7] = compound: C1CCN(C1)C(=O)NC2=CC=CC(=C2)NC3=NC=C(C(=N3)NCCC4=CN=CN4)Br
Method in brief: as §1

[8] = compound: C1CN(CCC1(CC2=CC=C(C=C2)Cl)N)C3=NC=NC4=C3C=CN4
Method in brief: as §1

IRAK-1-4 Inhibitor I = compound: C1COCCN1CCN2C3=CC=CC=C3N=C2NC(=O)C4=CC(=CC=C4)[N+](=O)[O-] [IRAK-1-4 Inhibitor I]
Method in brief: as §1

| Target | log2 fold change (erlotinib) | log2 fold change [1] | log2 fold change [2] | log2 fold change [3] | log2 fold change [4] | log2 fold change [5] | log2 fold change [6] | log2 fold change [7] | log2 fold change [8] | log2 fold change (IRAK-1-4 Inhibitor I) |
| --- | --- | --- | --- | --- | --- | --- | --- | --- | --- | --- |
| SLC25A11 (UniProt Q02978) | inactive: -0.012 | inactive: -0.102 | inactive: -0.023 | inactive: 0 | inactive: 0.02 | inactive: -0.009 | inactive: -0.036 | inactive: -0.02 | inactive: -0.005 | inactive: 0.033 |
| SLC9A6 isoform 2 (UniProt Q92581) | inactive: -0.003 | inactive: 0.006 | inactive: 0.008 | inactive: 0.02 | inactive: 0.055 | inactive: -0.035 | inactive: -0.061 | inactive: 0.015 | inactive: -0.065 | inactive: -0.051 |
| SLC43A1 (UniProt O75387) | inactive: 0.017 | inactive: -0.001 | inactive: -0.033 | inactive: 0.023 | inactive: -0.115 | inactive: 0.035 | inactive: -0.01 | inactive: -0.038 | inactive: -0.003 | inactive: -0.026 |
| SLC44A2 (UniProt Q8IWA5) | inactive: -0.059 | inactive: 0.013 | inactive: 0.045 | inactive: -0.013 | inactive: 0.026 | inactive: -0.008 | inactive: 0.01 | inactive: -0.046 | inactive: 0.048 | inactive: 0.069 |
| SLC6A8 (UniProt P48029) | inactive: -0.002 | inactive: -0.06 | inactive: 0.07 | inactive: -0.02 | inactive: -0.031 | inactive: -0.072 | inactive: -0.082 | inactive: 0.076 | inactive: 0.206 | inactive: 0.105 |
| SLC30A1 (UniProt Q9Y6M5) | inactive: 0.026 | inactive: 0.008 | inactive: 0.005 | inactive: 0.009 | inactive: -0.017 | inactive: 0.001 | inactive: -0.027 | inactive: -0.008 | inactive: 0.031 | inactive: 0.026 |
| SLC30A10 (UniProt Q6XR72) | inactive: 0.036 | inactive: 0.061 | inactive: -0.02 | inactive: 0.071 | inactive: -0.027 | inactive: -0.006 | inactive: -0.175 | inactive: 0.082 | inactive: -0.016 | inactive: 0.04 |
| SLC39A11 (UniProt Q8N1S5) | inactive: -0.093 | inactive: 0.116 | inactive: -0.047 | inactive: -0.139 | inactive: -0.071 | inactive: 0.05 | inactive: 0.062 | active: 0.385 | inactive: 0.058 | inactive: -0.053 |
| SLC25A6 (UniProt P12236) | inactive: 0.006 | inactive: 0.014 | inactive: 0.012 | inactive: -0.003 | inactive: -0.009 | inactive: 0.003 | inactive: 0.067 | inactive: 0.005 | inactive: -0.021 | inactive: 0.021 |
| SLC25A3 isoform 2 (UniProt Q00325) | inactive: 0.019 | inactive: -0.033 | inactive: 0.024 | inactive: -0.018 | inactive: -0.01 | inactive: -0.006 | inactive: -0.02 | inactive: 0.004 | inactive: -0.008 | inactive: 0.04 |
| SLC5A6 (UniProt Q9Y289) | inactive: 0.027 | inactive: -0.014 | inactive: 0.002 | inactive: -0.012 | inactive: -0.044 | inactive: 0.012 | inactive: -0.011 | inactive: -0.026 | inactive: 0.035 | inactive: 0.042 |
| SLC35F2 (UniProt Q8IXU6) | inactive: -0.022 | inactive: -0.114 | inactive: 0.038 | inactive: 0.137 | inactive: -0.078 | inactive: 0.032 | inactive: -0.065 | inactive: -0.074 | inactive: 0.013 | inactive: 0.031 |
| SLC2A1 (UniProt P11166) | inactive: -0.039 | inactive: 0.003 | inactive: -0.013 | inactive: -0.031 | inactive: -0.044 | inactive: -0.023 | inactive: -0.031 | inactive: 0.022 | inactive: 0.001 | inactive: -0.017 |
| SLC25A5 (UniProt P05141) | inactive: 0.005 | inactive: 0.034 | inactive: 0.062 | inactive: -0.021 | inactive: 0.039 | inactive: 0.003 | inactive: 0.013 | inactive: 0.008 | inactive: -0.014 | inactive: 0.015 |
| SMAD2 (UniProt Q15796) | inactive: 0.14 | inactive: 0.062 | inactive: -0.018 | inactive: 0.03 | inactive: 0.002 | inactive: 0.074 | inactive: -0.003 | inactive: 0.004 | inactive: 0.035 | inactive: -0.03 |
| SLC4A2 (UniProt P04920) | inactive: -0.131 | inactive: 0.038 | inactive: 0.018 | inactive: -0.032 | inactive: 0.043 | inactive: -0.083 | inactive: 0 | inactive: 0 | inactive: 0.044 | inactive: 0.014 |
| SMAP1 isoform 2 (UniProt Q8IYB5) | inactive: 0.002 | inactive: -0.058 | inactive: 0.037 | inactive: -0.017 | inactive: -0.024 | inactive: -0.041 | inactive: -0.031 | inactive: -0.001 | inactive: 0.026 | inactive: 0.03 |
| SLC3A2 isoform 3 (UniProt P08195) | inactive: -0.002 | inactive: 0.018 | inactive: 0.032 | inactive: -0.012 | inactive: -0.01 | inactive: 0.013 | inactive: 0.003 | inactive: 0.015 | inactive: 0.017 | inactive: 0.025 |
| SLC9A3R2 (UniProt Q15599) | inactive: 0.024 | inactive: -0.134 | inactive: 0.021 | inactive: 0.022 | inactive: -0.024 | inactive: 0.001 | inactive: -0.032 | inactive: -0.034 | inactive: 0.006 | inactive: 0.014 |
| SLC26A6 (UniProt Q9BXS9) | inactive: -0.04 | inactive: -0.117 | inactive: 0.024 | inactive: -0.018 | inactive: -0.044 | inactive: 0.032 | inactive: -0.114 | inactive: -0.13 | inactive: 0.087 | inactive: -0.062 |
| SLC33A1 (UniProt O00400) | inactive: -0.071 | inactive: -0.037 | inactive: -0.045 | inactive: 0.024 | inactive: -0.021 | inactive: -0.045 | inactive: -0.047 | inactive: -0.019 | inactive: -0.002 | inactive: 0.032 |
| SLC25A36 (UniProt Q96CQ1) | inactive: -0.021 | inactive: 0.024 | inactive: 0.08 | inactive: -0.129 |  | inactive: 0.041 | inactive: 0.027 | inactive: -0.027 | inactive: -0.026 | inactive: 0.038 |
| SLC25A15 (UniProt Q9Y619) | inactive: 0.007 | inactive: -0.071 | inactive: -0.007 | inactive: 0.005 | inactive: -0.012 | inactive: 0.01 | inactive: 0.039 | inactive: -0.023 | inactive: -0.052 | inactive: 0.02 |
| SLC35A1 (UniProt P78382) | inactive: -0.262 | inactive: -0.018 | inactive: 0.272 | inactive: -0.014 | inactive: -0.048 |  | inactive: -0.076 |  |  |  |
| SLC35A3 isoform 2 (UniProt Q9Y2D2) | inactive: -0.036 | inactive: 0.057 | inactive: 0.077 | inactive: 0.001 |  | inactive: -0.166 | inactive: -0.006 | inactive: -0.036 | inactive: -0.002 | inactive: 0.164 |
| SLC35B3 (UniProt Q9H1N7) | inactive: -0.085 | inactive: 0.047 | inactive: -0.002 | inactive: 0.098 | inactive: 0.107 | inactive: -0.038 | inactive: -0.09 |  |  | inactive: -0.001 |
| SLC31A1 (UniProt O15431) | inactive: 0.062 | inactive: -0.188 | inactive: 0.076 | inactive: 0.023 | inactive: 0.052 | inactive: -0.036 | inactive: -0.155 |  |  | inactive: 0.027 |
| SLC25A51 (UniProt Q9H1U9) | inactive: 0.027 | inactive: -0.022 | inactive: -0.018 | inactive: 0.04 | inactive: 0.018 | inactive: -0.036 | inactive: -0.085 | inactive: 0.004 | inactive: 0.028 | inactive: -0.019 |
| SMAD5 (UniProt Q99717) | inactive: 0.065 | inactive: 0.148 | inactive: -0.022 | inactive: 0.174 | inactive: -0.053 |  | inactive: -0.201 | inactive: 0.005 | inactive: -0.034 |  |
| SLC25A16 (UniProt P16260) | inactive: -0.028 | inactive: 0.121 | inactive: 0.173 | inactive: 0.079 |  |  | inactive: -0.022 |  |  |  |

A few values from above:
Value for SLC4A2 (UniProt P04920) under log2 fold change [8]: inactive: 0.044
Value for SLC44A2 (UniProt Q8IWA5) under log2 fold change [7]: inactive: -0.046

A second format for part of the listing above.
Target	log2 fold change (erlotinib)	log2 fold change [1]	log2 fold change [2]	log2 fold change [3]	log2 fold change [4]	log2 fold change [5]	log2 fold change [6]	log2 fold change [7]	log2 fold change [8]	log2 fold change (IRAK-1-4 Inhibitor I)
SLC43A1 (UniProt O75387)	inactive: 0.017	inactive: -0.001	inactive: -0.033	inactive: 0.023	inactive: -0.115	inactive: 0.035	inactive: -0.01	inactive: -0.038	inactive: -0.003	inactive: -0.026
SLC44A2 (UniProt Q8IWA5)	inactive: -0.059	inactive: 0.013	inactive: 0.045	inactive: -0.013	inactive: 0.026	inactive: -0.008	inactive: 0.01	inactive: -0.046	inactive: 0.048	inactive: 0.069
